Binding data for 1 substance are collected here from PMC3182252.

Sequences of proteins named here, by UniProt entry; tags and fusion partners are left off. Residues count along the entry.
UniProt P35968, residues 20-1356: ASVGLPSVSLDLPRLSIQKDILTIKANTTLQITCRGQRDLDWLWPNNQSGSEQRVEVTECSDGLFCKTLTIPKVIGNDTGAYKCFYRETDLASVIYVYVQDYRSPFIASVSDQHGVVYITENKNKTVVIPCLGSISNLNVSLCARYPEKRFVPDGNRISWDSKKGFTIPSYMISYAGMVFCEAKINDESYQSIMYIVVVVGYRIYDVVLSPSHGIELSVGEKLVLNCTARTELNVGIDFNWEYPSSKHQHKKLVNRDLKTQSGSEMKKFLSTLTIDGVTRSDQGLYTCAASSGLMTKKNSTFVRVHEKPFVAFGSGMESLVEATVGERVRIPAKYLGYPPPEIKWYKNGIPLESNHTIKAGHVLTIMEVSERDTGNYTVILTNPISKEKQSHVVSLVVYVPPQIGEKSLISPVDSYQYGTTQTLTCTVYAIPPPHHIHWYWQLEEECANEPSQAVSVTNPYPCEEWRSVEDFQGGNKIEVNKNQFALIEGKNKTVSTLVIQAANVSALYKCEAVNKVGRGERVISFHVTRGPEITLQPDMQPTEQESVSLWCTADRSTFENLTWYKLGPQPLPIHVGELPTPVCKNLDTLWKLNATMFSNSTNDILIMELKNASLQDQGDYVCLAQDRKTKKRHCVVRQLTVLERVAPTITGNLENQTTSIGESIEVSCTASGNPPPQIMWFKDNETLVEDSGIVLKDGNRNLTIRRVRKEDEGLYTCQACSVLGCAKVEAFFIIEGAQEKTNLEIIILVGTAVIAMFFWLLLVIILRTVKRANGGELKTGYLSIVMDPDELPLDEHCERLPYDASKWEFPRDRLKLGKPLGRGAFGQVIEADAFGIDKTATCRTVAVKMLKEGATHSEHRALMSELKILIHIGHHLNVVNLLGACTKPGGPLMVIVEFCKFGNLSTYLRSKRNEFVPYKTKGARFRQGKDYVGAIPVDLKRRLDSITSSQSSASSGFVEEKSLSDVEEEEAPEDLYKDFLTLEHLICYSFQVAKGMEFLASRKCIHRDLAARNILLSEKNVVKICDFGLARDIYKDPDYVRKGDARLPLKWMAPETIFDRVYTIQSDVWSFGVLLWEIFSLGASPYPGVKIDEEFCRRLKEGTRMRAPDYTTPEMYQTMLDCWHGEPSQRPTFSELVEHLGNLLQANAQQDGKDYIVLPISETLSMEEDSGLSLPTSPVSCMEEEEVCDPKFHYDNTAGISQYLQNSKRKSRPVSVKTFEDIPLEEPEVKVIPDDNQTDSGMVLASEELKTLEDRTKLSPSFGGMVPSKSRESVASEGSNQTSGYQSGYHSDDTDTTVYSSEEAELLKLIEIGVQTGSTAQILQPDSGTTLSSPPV
UniProt P08047: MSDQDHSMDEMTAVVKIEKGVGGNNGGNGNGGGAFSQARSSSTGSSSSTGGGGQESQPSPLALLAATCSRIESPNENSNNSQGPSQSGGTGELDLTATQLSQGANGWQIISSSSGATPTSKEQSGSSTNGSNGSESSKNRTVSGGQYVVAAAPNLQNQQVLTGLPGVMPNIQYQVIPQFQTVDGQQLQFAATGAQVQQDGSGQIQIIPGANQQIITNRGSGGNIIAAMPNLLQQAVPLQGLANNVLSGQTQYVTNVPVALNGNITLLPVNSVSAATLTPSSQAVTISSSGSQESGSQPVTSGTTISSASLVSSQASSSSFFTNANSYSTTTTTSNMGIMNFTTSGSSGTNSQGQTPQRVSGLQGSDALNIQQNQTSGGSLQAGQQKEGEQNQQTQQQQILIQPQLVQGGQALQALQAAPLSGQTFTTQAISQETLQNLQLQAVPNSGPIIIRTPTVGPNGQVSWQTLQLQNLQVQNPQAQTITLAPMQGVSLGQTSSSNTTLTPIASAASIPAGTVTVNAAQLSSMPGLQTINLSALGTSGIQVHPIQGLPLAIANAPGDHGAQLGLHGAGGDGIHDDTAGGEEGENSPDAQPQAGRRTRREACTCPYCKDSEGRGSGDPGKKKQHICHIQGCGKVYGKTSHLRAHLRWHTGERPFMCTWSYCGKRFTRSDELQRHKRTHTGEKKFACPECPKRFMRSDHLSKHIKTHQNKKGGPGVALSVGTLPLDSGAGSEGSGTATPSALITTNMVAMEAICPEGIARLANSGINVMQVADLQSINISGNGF

The test has as its target Vascular Endothelial Growth Factor Receptor-2 (VEGFR2), nuclear (human (endogenous in HUVEC)) (UniProt P35968). In words: affinity purification with mass spectrometry; IP of 1 mg EC nuclear extract with anti-human VEGFR2, 8% SDS-PAGE, silver staining, in-gel trypsin digestion, nanoflow LC-MS/MS, Mascot search.

These are yes or no findings as the source states them, for the method shown. Binding seen in cells or lysates may run through a third protein. A yes stands for co-enrichment or nearness to the bait. Other partners may have been found.

As for “Sp1 transcription factor (from UniProt P08047 1-785)”, the binding entry was “binds”.
